# Primary screen of a compound library

The chains behind the UniProt entries cited, without tags or fusion partners.
UniProt P9WPC5, whole entry: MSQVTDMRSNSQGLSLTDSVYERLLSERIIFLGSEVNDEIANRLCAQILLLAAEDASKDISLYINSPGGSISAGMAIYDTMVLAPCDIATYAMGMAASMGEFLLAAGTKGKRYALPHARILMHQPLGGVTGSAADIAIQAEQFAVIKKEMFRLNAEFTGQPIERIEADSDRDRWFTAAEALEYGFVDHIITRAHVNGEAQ
UniProt P9WPC3, whole entry partner: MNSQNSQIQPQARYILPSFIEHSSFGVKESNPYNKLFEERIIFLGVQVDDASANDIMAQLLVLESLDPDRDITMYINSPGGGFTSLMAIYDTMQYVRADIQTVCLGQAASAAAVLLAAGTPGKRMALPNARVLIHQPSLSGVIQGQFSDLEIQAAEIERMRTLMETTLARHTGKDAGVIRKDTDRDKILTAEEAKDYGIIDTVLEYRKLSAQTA
UniProt P9WNZ1, whole entry: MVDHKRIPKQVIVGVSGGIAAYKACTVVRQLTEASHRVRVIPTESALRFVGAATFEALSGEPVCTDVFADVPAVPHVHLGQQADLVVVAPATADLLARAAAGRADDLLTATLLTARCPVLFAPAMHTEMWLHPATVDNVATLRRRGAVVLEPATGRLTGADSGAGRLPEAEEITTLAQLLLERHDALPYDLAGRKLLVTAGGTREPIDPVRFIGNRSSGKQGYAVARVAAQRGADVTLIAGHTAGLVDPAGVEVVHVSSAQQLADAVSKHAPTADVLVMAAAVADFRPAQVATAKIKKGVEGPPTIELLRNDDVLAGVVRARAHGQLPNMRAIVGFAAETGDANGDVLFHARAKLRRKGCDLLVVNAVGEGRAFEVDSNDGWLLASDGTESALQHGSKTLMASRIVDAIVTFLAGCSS

ClpP1P2: 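ClpP1P2, Mycobacterium tuberculosis (UniProt P9WPC5 and UniProt P9WPC3). Protease assay of ClpP1P2, read by the AMC dye that it sets free. Compounds at 50 µM. Higher reads as stronger inhibition, judged from the few compounds that gave an IC50. Most other retested compounds had strongly negative values. About 69,000 compounds were tested under these conditions; 0.015% (about 10) showed 50% or more at least once.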
CoaBC: 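Enzyme assay of CoaBC with a phosphate dye (Biomol Green) read at 650 nm. Target: Coenzyme A biosynthesis protein CoaBC, Mycobacterium tuberculosis (UniProt P9WNZ1). Tested at 30 µM. Higher reads as stronger inhibition, judged from the few compounds that gave an IC50. Most strong results did not repeat in a second test. About 67,000 compounds were tested under these conditions; 0.06% (about 40) showed 50% or more at least once.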
Toxoplasma: 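Assay of Toxoplasma gondii numbers, read through their beta-galactosidase reporter with a colour substrate. Compounds at 10 µM. Higher reads as fewer parasites (inferred from which compounds were picked for retests). Size under these conditions: about 67,000 compounds, about 260 of them at 50% or above in at least one test.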

The filed quantity is “Percent Effect” (%). How 0% and 100% were set is not recorded. Most values in the screen are low, and negative values occur. The compounds are a random part of those screened.

{"smiles": "CCCN(CCC)c1nc(N)nc(-c2cc(Cl)ccc2OC)n1", "ClpP1P2": 3.667, "CoaBC": -0.6711, "Toxoplasma": 9.753}
{"smiles": "CC(NC(=O)CSCC#N)c1ccc(F)cc1", "stereo": "stereo not shown", "ClpP1P2": 8.393, "CoaBC": -1.434, "Toxoplasma": 22.87}
{"smiles": "COCC(=O)N1CCCn2c(CN3CCOCC3)nnc2C1.O=C(O)C(F)(F)F", "Toxoplasma": -16}
{"smiles": "CNC(=O)c1cccnc1NCc1ccc(Cn2cccn2)cc1", "ClpP1P2": -8.276, "CoaBC": 1.104, "Toxoplasma": -2.431}
{"smiles": "CCN(CC)c1ccc2ccc(C(=O)N3CCCCO3)cn12.O=C(O)C(F)(F)F", "Toxoplasma": -1.326}
{"smiles": "CC(C)NC(=O)N1CCC2(COCc3cnc(-c4cccnc4)nc32)C1", "stereo": "stereo not shown", "ClpP1P2": -7.116, "CoaBC": 0.2571, "Toxoplasma": -4.25}
{"smiles": "COc1cccc(N2C(=O)CC3(CCCNC3)C2=O)c1", "stereo": "stereo not shown", "ClpP1P2": -4.656, "CoaBC": 4.505}
{"smiles": "CCNC(=O)[C@@H]1C[C@H](N)CN1C(=O)Cc1cc(C)ccc1C", "ClpP1P2": 2.054, "CoaBC": 1.799, "Toxoplasma": 0.6067}
{"smiles": "Cc1nc(=O)c2ccccc2n1C1=CCN(CC(=O)N2CCCC2)CC1", "ClpP1P2": -23.33, "CoaBC": -3.653, "Toxoplasma": -1.698}
{"smiles": "Cc1cc(C2CCCN(C(=O)c3cnccn3)C2)ccn1", "stereo": "stereo not shown", "ClpP1P2": -5.006, "CoaBC": 1.944, "Toxoplasma": 6.214}
{"smiles": "CCC1=N[C@@]2(CC[C@@H]3CN(Cc4ccc(Cl)cc4)C[C@@H]32)C(=O)N1C", "ClpP1P2": 5.925, "CoaBC": -6.427}
{"smiles": "CCc1nnc2ccc(NCC3(O)CCOCC3)nn12", "ClpP1P2": 0.4, "CoaBC": -6.11, "Toxoplasma": -6.639}
{"smiles": "CN(CC(=O)Nc1ccccc1C(=O)NC1CC1)Cc1ccccc1Cl", "ClpP1P2": 5.796, "CoaBC": 9.244, "Toxoplasma": -4.507}
{"smiles": "CN(Cc1ccc(-n2cccn2)cc1)Cc1cnc(N(C)C)nc1", "ClpP1P2": -1.399, "CoaBC": 14.2, "Toxoplasma": -0.634}
{"smiles": "O=C(CCc1cn[nH]c1)N1C[C@@H](CN2CCCCCC2)[C@@H](CO)C1", "ClpP1P2": -2.583, "CoaBC": -7.202, "Toxoplasma": -4.784}
{"smiles": "COc1ccccc1OCCNCc1c(C)nn(C)c1N(C)C.Cl", "Toxoplasma": 6.469}
{"smiles": "Cc1cncc(Oc2ccc(CN)cc2)n1", "ClpP1P2": -3.46, "CoaBC": -2.301, "Toxoplasma": 15.18}
{"smiles": "CCS(=O)(=O)N1Cc2c(Cn3ccnc3)nn(C)c2C1", "ClpP1P2": 6.917, "CoaBC": -0.8333, "Toxoplasma": -30.62}
{"smiles": "CCc1n[nH]c(C2CN(C(=O)c3cnn(CC)c3)CCO2)n1", "stereo": "stereo not shown", "ClpP1P2": -28.42, "CoaBC": 0, "Toxoplasma": 17.87}
{"smiles": "O=C(Nc1cc(C(F)(F)F)ccc1Cl)c1ccc(N2CCOCC2)nn1", "ClpP1P2": 16.34, "CoaBC": -4.622, "Toxoplasma": -2.254}

The last 2 entries again:

SMILES	ClpP1P2	CoaBC	Toxoplasma
CCc1n[nH]c(C2CN(C(=O)c3cnn(CC)c3)CCO2)n1 (stereo not shown)	-28.42%	0%	17.87%
O=C(Nc1cc(C(F)(F)F)ccc1Cl)c1ccc(N2CCOCC2)nn1	16.34%	-4.622%	-2.254%

From ChEMBL document CHEMBL3988442, “University of Dundee, Small-Polar-MMV Screening Library” (2021).